According to US8936807B2 (Lipopeptide AB, priority 2003, dated 2015):

Assay: peptide made by a vendor (Fmoc solid-phase peptide synthesis)
Details: whole synthesis, HPLC and area integration

Sequence: LLGDFFRKSKEKIGKEFKRIVQRIKDFLRNLVPRTES
- final HPLC purity (TFA salt, run 1): 99%
- final HPLC purity (TFA salt, run 2): 98%
- final HPLC purity (acetate salt): 99%

End groups of sequences in plain letters are not given here.
